No constants are given. Whether binding was seen depends on the method and setting. Binding seen in cells or lysates may run through a third protein. Some entries that bind do so weakly or less than the wild type.
Key:
[1] = target: NADPH oxidase 2 (NOX2) (rat) (rat (endogenous in rat substantia nigra)) (UniProt Q9ERL1); experiment: proximity ligation
[2] = target: T1, NADPH oxidase 2 (NOX2) (human (endogenous in HEK-293 and in human midbrain)) (UniProt P04839); experiment: co-IP
T1 sequence: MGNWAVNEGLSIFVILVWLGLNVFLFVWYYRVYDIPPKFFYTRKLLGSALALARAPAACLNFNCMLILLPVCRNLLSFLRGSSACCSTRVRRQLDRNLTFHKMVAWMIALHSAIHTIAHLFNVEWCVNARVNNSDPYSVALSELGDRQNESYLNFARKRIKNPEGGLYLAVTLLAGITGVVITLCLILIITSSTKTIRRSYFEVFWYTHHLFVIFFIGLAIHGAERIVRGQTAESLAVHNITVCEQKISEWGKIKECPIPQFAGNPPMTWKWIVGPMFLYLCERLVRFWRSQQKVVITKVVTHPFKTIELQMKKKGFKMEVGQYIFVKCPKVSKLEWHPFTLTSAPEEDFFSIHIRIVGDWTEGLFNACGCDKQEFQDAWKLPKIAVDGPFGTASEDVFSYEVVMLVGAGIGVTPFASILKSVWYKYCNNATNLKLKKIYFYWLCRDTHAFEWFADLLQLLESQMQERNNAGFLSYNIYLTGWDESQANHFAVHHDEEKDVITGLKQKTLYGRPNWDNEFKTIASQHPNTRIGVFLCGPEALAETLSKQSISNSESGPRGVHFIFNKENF

Chains of the proteins cited; added tags and fusions are not shown.
UniProt F1M707: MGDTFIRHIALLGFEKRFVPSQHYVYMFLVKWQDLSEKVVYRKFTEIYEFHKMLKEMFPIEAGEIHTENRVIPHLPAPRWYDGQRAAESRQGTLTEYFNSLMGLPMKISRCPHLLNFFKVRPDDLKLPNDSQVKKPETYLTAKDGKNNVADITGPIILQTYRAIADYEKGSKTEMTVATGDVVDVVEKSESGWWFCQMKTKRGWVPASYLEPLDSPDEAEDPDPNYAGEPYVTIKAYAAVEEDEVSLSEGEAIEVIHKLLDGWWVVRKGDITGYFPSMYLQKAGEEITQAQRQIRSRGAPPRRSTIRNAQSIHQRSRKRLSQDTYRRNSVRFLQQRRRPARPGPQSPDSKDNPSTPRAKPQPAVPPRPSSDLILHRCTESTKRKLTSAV
UniProt P14598: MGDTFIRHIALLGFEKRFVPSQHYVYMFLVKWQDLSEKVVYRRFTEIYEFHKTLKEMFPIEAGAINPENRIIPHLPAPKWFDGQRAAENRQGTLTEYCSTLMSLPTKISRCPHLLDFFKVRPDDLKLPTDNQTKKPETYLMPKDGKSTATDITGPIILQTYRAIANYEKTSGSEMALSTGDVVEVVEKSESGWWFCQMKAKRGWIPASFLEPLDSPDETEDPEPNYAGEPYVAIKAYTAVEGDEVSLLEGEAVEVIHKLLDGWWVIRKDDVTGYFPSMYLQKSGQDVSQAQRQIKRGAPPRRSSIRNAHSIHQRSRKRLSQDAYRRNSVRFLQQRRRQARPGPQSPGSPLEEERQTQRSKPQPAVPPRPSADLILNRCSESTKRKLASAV

[3] = target: T1, NADPH oxidase 2 (NOX2) (human (endogenous in HEK-293 and in human midbrain)); experiment: proximity ligation

binding [2] | binding [3] | Substance | binding [1]
 |  | p47^phox (rat) (from UniProt F1M707 1-389) | binds
binds | binds | p47^phox (from UniProt P14598 1-390) | 

From doi:10.1101/2021.05.13.443999
